Measured values taken from the supplement of paper PMC10849652.
Some of the results follow.

Protein sequences, listed by entry. Tags and fused reporters are not part of them. Lines headed by an entry give the natural chain unless they say otherwise; changes in a name come on top.
UniProt Q9NR28: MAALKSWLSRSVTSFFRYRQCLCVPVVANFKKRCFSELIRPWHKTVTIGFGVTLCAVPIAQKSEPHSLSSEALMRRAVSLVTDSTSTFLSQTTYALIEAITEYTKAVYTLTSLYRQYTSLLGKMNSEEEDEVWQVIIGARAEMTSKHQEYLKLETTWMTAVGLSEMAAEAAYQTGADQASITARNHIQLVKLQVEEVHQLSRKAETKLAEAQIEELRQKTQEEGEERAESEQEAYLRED
UniProt Q96HY7: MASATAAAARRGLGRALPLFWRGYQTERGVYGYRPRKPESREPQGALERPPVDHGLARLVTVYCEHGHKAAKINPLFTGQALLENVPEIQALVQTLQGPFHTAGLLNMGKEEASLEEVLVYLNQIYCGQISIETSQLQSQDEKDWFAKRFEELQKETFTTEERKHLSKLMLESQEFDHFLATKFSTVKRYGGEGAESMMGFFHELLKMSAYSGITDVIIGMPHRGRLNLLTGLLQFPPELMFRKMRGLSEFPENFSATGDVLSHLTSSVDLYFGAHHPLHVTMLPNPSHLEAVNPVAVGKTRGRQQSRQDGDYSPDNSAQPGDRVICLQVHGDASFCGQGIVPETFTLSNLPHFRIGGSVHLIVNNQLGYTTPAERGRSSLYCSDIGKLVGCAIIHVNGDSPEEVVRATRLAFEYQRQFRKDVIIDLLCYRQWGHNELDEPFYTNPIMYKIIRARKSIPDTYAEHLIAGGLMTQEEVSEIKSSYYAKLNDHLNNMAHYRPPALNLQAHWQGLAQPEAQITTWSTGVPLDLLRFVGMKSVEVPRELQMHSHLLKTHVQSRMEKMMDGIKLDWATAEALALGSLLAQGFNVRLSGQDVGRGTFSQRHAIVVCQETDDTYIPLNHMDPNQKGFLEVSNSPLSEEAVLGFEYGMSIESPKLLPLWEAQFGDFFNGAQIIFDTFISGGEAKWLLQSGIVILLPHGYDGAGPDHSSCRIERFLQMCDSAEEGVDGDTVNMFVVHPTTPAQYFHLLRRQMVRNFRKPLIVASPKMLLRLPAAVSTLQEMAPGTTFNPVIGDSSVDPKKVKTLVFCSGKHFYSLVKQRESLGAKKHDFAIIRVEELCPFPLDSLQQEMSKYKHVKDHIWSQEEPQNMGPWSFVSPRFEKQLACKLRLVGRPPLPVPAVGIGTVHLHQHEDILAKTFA
UniProt Q8IWF6: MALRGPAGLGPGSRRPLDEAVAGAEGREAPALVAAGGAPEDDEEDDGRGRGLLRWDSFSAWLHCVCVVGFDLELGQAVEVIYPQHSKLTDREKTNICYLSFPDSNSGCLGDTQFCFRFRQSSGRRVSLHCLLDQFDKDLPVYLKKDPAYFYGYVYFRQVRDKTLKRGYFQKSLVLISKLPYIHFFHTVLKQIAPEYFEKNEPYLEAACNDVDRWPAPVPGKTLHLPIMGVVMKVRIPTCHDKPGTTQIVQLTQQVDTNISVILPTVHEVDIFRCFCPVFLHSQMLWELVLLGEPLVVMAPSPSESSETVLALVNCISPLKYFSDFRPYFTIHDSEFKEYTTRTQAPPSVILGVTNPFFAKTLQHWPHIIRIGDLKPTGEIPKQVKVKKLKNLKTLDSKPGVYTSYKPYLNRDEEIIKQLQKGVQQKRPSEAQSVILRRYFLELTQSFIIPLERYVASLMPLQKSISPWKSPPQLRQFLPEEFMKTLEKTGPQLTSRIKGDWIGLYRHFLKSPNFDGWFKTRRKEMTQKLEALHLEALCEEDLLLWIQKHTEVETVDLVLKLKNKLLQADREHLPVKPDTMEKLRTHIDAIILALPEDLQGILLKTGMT
UniProt Q9Y2H0: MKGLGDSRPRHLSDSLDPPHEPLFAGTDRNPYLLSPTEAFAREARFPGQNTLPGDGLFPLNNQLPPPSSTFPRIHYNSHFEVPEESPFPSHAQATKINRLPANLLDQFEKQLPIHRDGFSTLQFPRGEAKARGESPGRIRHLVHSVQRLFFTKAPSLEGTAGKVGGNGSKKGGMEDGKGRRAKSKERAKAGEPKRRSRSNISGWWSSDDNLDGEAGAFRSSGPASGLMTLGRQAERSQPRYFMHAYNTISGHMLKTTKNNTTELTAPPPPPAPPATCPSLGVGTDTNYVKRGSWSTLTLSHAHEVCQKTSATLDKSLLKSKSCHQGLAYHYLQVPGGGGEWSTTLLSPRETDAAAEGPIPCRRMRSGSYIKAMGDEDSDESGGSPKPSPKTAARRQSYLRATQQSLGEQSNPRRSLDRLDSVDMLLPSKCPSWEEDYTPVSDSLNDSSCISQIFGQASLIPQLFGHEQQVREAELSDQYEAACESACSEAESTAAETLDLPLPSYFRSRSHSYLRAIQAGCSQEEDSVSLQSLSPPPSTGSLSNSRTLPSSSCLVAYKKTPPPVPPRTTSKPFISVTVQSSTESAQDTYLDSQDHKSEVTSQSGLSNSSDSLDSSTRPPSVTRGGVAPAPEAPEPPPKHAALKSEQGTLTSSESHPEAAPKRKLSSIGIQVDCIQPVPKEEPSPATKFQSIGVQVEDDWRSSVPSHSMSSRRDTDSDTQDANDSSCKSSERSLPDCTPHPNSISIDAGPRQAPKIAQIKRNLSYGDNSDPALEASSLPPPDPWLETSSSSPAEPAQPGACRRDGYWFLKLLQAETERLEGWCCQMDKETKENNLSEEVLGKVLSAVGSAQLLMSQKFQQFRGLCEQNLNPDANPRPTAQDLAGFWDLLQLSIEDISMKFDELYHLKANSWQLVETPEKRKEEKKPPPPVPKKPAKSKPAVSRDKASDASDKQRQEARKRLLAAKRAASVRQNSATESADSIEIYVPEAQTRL
UniProt Q8TF46, whole entry, looked up: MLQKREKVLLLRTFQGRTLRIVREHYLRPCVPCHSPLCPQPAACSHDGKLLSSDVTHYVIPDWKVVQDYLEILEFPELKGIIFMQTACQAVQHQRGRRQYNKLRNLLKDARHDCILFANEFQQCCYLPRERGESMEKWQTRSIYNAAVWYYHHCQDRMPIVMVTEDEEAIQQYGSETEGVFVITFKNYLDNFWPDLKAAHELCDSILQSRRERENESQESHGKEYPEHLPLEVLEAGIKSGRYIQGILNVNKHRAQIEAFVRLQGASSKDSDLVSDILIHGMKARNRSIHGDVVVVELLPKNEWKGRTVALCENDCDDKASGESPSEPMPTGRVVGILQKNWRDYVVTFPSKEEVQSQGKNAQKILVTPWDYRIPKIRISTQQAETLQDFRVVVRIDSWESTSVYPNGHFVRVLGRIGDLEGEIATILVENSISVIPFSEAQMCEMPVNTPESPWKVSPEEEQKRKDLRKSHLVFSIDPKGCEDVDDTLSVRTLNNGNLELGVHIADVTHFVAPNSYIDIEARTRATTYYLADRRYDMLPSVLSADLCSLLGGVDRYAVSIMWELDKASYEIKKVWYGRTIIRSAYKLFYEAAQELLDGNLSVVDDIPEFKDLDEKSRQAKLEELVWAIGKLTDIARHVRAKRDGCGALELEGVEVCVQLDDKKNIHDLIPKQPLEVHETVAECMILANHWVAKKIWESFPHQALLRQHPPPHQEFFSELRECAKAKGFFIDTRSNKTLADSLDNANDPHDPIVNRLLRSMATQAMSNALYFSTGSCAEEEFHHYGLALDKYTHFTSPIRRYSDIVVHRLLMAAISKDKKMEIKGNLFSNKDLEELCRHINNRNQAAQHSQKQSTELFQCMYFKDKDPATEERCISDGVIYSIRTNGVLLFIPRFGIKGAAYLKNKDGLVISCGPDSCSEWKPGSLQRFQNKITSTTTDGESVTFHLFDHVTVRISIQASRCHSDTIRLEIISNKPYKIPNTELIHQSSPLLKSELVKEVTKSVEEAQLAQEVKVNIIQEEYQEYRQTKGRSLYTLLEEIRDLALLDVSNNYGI
UniProt O00273: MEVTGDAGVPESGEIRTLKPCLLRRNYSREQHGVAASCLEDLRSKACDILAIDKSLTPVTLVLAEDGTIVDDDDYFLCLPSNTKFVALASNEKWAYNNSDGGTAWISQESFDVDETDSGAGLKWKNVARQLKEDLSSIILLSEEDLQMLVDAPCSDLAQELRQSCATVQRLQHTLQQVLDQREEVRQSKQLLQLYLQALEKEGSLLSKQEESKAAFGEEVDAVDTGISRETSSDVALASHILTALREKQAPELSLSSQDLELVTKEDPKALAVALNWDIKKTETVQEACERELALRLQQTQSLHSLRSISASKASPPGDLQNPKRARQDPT
UniProt Q8WYQ5: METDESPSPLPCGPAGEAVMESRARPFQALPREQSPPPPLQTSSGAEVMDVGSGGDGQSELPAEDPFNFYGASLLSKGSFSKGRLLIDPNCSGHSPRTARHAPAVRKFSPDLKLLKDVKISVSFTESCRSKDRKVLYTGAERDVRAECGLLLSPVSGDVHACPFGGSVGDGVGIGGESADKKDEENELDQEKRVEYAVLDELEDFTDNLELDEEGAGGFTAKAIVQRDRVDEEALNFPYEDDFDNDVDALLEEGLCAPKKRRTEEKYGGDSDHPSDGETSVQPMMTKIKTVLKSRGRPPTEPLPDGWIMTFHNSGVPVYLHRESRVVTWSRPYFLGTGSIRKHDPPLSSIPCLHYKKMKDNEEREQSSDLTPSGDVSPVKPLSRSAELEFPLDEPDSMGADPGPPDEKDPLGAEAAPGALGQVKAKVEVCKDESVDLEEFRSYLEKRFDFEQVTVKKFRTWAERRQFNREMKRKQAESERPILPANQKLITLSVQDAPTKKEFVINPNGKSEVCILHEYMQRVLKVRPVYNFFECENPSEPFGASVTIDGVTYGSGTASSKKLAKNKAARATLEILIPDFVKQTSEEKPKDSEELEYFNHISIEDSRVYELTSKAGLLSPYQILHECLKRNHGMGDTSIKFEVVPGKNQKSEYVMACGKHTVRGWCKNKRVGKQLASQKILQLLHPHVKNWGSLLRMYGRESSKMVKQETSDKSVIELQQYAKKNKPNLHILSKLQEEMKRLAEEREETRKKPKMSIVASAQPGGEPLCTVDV
UniProt Q08211, whole entry, looked up: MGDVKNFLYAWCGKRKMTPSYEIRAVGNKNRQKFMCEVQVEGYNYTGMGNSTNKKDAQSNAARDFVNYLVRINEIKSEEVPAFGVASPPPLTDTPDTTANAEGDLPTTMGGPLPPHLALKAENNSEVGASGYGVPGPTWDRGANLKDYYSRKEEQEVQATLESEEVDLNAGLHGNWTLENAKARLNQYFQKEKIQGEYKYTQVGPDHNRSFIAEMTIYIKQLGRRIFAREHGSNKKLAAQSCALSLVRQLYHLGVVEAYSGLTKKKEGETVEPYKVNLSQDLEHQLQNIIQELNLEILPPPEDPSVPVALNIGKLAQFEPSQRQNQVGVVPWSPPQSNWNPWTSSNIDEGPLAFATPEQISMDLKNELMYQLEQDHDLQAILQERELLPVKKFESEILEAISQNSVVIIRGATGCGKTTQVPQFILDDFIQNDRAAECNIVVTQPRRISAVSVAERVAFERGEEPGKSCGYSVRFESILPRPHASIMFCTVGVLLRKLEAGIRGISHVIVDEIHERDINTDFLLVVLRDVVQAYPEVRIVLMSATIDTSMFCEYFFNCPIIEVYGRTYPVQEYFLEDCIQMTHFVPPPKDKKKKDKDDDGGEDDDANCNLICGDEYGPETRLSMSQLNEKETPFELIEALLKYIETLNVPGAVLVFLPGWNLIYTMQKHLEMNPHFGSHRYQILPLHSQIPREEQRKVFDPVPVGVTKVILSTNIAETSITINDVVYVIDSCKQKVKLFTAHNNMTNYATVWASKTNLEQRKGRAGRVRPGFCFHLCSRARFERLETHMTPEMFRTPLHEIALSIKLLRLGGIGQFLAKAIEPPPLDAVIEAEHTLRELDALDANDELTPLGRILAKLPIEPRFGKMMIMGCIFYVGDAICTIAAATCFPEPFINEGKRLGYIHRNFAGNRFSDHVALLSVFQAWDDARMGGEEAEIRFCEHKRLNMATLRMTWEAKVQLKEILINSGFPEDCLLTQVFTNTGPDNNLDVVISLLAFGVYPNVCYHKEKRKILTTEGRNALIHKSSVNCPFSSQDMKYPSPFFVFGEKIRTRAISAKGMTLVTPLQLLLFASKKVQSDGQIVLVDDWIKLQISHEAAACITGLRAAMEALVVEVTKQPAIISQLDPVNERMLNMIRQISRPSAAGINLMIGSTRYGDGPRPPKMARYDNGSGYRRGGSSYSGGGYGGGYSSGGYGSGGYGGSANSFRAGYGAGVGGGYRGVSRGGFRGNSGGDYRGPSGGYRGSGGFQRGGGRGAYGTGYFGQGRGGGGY
UniProt Q16698: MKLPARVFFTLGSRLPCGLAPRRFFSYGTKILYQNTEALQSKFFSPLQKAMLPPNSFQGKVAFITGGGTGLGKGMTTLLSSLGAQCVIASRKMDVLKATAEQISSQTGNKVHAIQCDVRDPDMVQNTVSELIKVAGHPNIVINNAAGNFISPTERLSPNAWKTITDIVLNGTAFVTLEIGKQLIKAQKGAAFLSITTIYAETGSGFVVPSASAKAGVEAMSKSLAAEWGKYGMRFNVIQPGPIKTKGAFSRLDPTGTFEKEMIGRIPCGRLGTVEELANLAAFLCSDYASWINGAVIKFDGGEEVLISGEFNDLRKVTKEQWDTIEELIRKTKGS

What was measured:
Assay in all cases: log2 fold change, soluble protein after heating vs DMSO (PISA); higher = thermal stabilisation; K562 cells, 10 uM, 30 min; active = over 0.2 and 3.5 SD of the protein, either way, in both replicates (recomputed)
[1] = compound: COC1=CC=C(C=C1)CN2C=CC3=C2C=C(C=C3)C(=O)NO
Outline: (§1)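 Quantification of soluble protein used TMTpro 16plex LC-MS/MS, with channel sums equalised. Samples were the supernatant after 21,000xg for 90 min of pooled aliquots from K562 cells (2×10^6 cells/mL) treated with 10 μM compound for 30 min, heated for 3 min over 48°C-58°C, and extracted in PBS with 0.5% NP-40 at 4°C. Values, from duplicates, describe thermal stability against control samples on a log2 fold-change scale.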

filanesib = compound: CON(C)C(=O)N1N=C(c2cc(F)ccc2F)S[C@@]1(CCCN)c1ccccc1 [filanesib]
Outline: as §1

zotarolimus = compound: CO[C@H]1C[C@@H]2CC[C@@H](C)[C@@](O)(O2)C(=O)C(=O)N2CCCC[C@H]2C(=O)O[C@H]([C@H](C)C[C@@H]2CC[C@H](n3cnnn3)[C@H](OC)C2)CC(=O)[C@H](C)/C=C(\C)[C@@H](O)[C@@H](OC)C(=O)[C@H](C)C[C@H](C)/C=C/C=C/C=C/1C [zotarolimus]
Outline: as §1

idasanutlin = compound: COc1cc(C(=O)O)ccc1NC(=O)[C@@H]1N[C@@H](CC(C)(C)C)[C@](C#N)(c2ccc(Cl)cc2F)[C@H]1c1cccc(Cl)c1F [idasanutlin]
Outline: as §1

alisertib = compound: COc1cc(Nc2ncc3c(n2)-c2ccc(Cl)cc2C(c2c(F)cccc2OC)=NC3)ccc1C(=O)O [alisertib]
Outline: as §1

[2] = compound: COc1cc2nc(-c3cc(F)ccc3O)nc(N[C@@H]3CNC[C@H]3C(C)(C)O)c2cc1OC
Outline: as §1

gefitinib = compound: COc1cc2ncnc(Nc3ccc(F)c(Cl)c3)c2cc1OCCCN1CCOCC1 [gefitinib]
Outline: as §1

[3] = compound: COc1cccc2cc(-c3nc([C@H]4CC[C@H](C(=O)O)CC4)n4ncnc(N)c34)[nH]c12
Outline: as §1

lapatinib = compound: CS(=O)(=O)CCNCc1ccc(-c2ccc3ncnc(Nc4ccc(OCc5cccc(F)c5)c(Cl)c4)c3c2)o1 [lapatinib]
Outline: as §1

pictilisib = compound: CS(=O)(=O)N1CCN(Cc2cc3nc(-c4cccc5[nH]ncc45)nc(N4CCOCC4)c3s2)CC1 [pictilisib]
Outline: as §1

Measured: log2 fold change

DDX46 (UniProt Q7L014)
inactive: [1] 0.109 | filanesib -0.003 | zotarolimus 0.046 | idasanutlin 0.029 | alisertib 0.434 | [2] 0.001 | gefitinib 0.041 | [3] -0.005 | lapatinib 0.026 | pictilisib 0.117

DNAH9 (UniProt Q9NYC9)
inactive: [1] -0.026 | filanesib -0.051 | zotarolimus 0.003 | idasanutlin 0.003 | alisertib -0.022 | [2] 0.038 | gefitinib -0.048 | [3] 0.034 | lapatinib -0.014 | pictilisib 0.022

DDX19B (UniProt Q9UMR2)
inactive: [1] 0.041 | filanesib -0.059 | zotarolimus 0.054 | idasanutlin -0.023 | alisertib -0.056 | [2] -0.008 | gefitinib -0.009 | [3] 0.004 | lapatinib -0.033 | pictilisib -0.009

DIP2B (UniProt Q9P265)
inactive: [1] -0.023 | filanesib -0.041 | zotarolimus 0.009 | idasanutlin -0.053 | alisertib -0.036 | [2] 0.001 | gefitinib 0.013 | [3] 0.024 | lapatinib 0.016 | pictilisib 0.045

DHRS7 (UniProt Q9Y394)
inactive: [1] -0.041 | filanesib -0.086 | zotarolimus -0.02 | idasanutlin -0.015 | alisertib -0.046 | [2] -0.007 | gefitinib 0.041 | [3] 0.032 | lapatinib 0.032 | pictilisib -0.038

DIS3L2 (UniProt Q8IYB7)
inactive: [1] -0.067 | filanesib 0.129 | zotarolimus -0.044 | idasanutlin 0.059 | alisertib -0.067 | [2] 0.155 | gefitinib 0.006 | [3] 0.014 | lapatinib 0 | pictilisib 0.041

DIABLO (UniProt Q9NR28)
inactive: [1] -0.026 | filanesib -0.06 | zotarolimus 0.055 | idasanutlin 0.014 | alisertib -0.106 | [2] 0.007 | gefitinib 0.016 | [3] 0.058 | lapatinib -0.003 | pictilisib -0.06

DLST (UniProt P36957)
inactive: [1] 0.023 | filanesib 0.013 | zotarolimus -0.04 | idasanutlin 0.015 | alisertib -0.077 | [2] -0.044 | gefitinib -0.025 | [3] -0.027 | lapatinib 0.036 | pictilisib -0.011

DHTKD1 (UniProt Q96HY7)
inactive: [1] -0.06

DIS3 (UniProt Q9Y2L1)
inactive: [1] 0.03 | filanesib -0.032 | zotarolimus 0.035 | idasanutlin -0.035 | alisertib 0.09 | [2] -0.012 | gefitinib 0.01 | [3] -0.022 | lapatinib 0.013 | pictilisib 0.051

DENND6A (UniProt Q8IWF6)
inactive: [1] -0.008 | filanesib 0.042 | zotarolimus 0.03 | idasanutlin -0.032 | alisertib -0.125 | [2] 0.057 | gefitinib -0.104 | [3] 0.1 | lapatinib 0.074 | pictilisib 0.28

DENND1B (UniProt Q6P3S1)
inactive: [1] -0.124 | filanesib 0.038 | zotarolimus -0.086 | idasanutlin 0.017 | alisertib 0.408 | [2] 0.013 | gefitinib 0.001 | [3] -0.368 | lapatinib -0.01

DMXL1 (UniProt Q9Y485)
inactive: [1] 0.023 | filanesib 0.046 | zotarolimus -0.008 | idasanutlin -0.012 | alisertib -0.003 | [2] 0.02 | gefitinib -0.029 | [3] -0.003 | lapatinib -0.02 | pictilisib -0.015

DHRS7B (UniProt Q6IAN0)
active: [2] 0.335
inactive: [1] 0.012 | filanesib 0.03 | zotarolimus -0.058 | idasanutlin -0.03 | alisertib 0.012 | gefitinib 0.056 | [3] -0.025 | lapatinib 0.109 | pictilisib -0.143

DGUOK (UniProt Q16854)
inactive: [1] -0.022 | filanesib -0.032 | zotarolimus 0.005 | idasanutlin -0.04 | alisertib -0.054 | [2] 0.057 | gefitinib 0.004 | [3] 0.021 | lapatinib -0.018 | pictilisib 0.007

DDX21 (UniProt Q9NR30)
inactive: [1] 0.001 | filanesib 0.233 | zotarolimus -0.01 | idasanutlin 0.283 | alisertib -0.098 | [2] 0.034 | gefitinib -0.046 | [3] -0.101 | lapatinib 0.121 | pictilisib -0.105

DLG2 isoform 2 (UniProt Q15700)
inactive: [1] -0.151 | filanesib 0.025 | zotarolimus -0.005 | idasanutlin 0.005 | alisertib 0.013 | [2] 0.001 | gefitinib 0.029 | [3] -0.131 | lapatinib -0.003 | pictilisib 0.032

DLGAP4 (UniProt Q9Y2H0)
inactive: [1] 0.049 | filanesib -0.029 | zotarolimus -0.022 | idasanutlin 0.024 | alisertib 0.008 | [2] -0.036 | gefitinib 0.009 | [3] 0.03 | lapatinib 0.008 | pictilisib 0.051

DIS3L (UniProt Q8TF46)
inactive: [1] -0.247 | filanesib 0.004 | zotarolimus -0.23 | idasanutlin -0.002 | alisertib 0.034 | [2] -0.189 | gefitinib 0.019 | [3] -0.074 | lapatinib 0.031

DDI2 isoform 3 (UniProt Q5TDH0)
inactive: [1] 0.009 | filanesib -0.057 | zotarolimus 0.016 | idasanutlin -0.032 | alisertib -0.049 | [2] -0.043 | gefitinib -0.02 | [3] 0.035 | lapatinib 0.03 | pictilisib 0

DFFA (UniProt O00273)
inactive: [1] 0.007 | filanesib 0.014 | zotarolimus 0.01 | idasanutlin -0.038 | alisertib -0.057 | [2] 0.023 | gefitinib -0.012 | [3] -0.025 | lapatinib -0.012 | pictilisib 0.013

DHX34 (UniProt Q14147)
inactive: [1] -0.017

DENND4B (UniProt O75064)
inactive: [1] -0.117 | filanesib 0.113 | zotarolimus 0.064 | idasanutlin 0.037 | alisertib -0.043 | [2] 0.083 | gefitinib 0.064 | [3] 0.137 | lapatinib 0.147 | pictilisib 0.05

DGCR8 (UniProt Q8WYQ5)
inactive: [1] -0.009 | filanesib 0.345 | zotarolimus 0.11 | idasanutlin 0.313 | alisertib -0.114 | [2] -0.08 | gefitinib -0.04 | [3] -0.034 | lapatinib 0.227 | pictilisib -0.085

DHRS4 (UniProt Q9BTZ2)
inactive: [1] 0.113 | filanesib -0.103 | zotarolimus -0.014 | idasanutlin -0.008 | alisertib -0.045 | [2] -0.004 | gefitinib 0.045 | [3] 0.04 | lapatinib 0.015 | pictilisib -0.034

DHODH (UniProt Q02127)
inactive: [1] -0.008 | filanesib -0.014 | zotarolimus -0.031 | idasanutlin 0.007 | alisertib -0.024 | [2] 0.051 | gefitinib 0.011 | [3] 0.061 | lapatinib -0.065 | pictilisib -0.003

DGKE (UniProt P52429)
inactive: [1] -0.049 | filanesib -0.126 | zotarolimus 0.121 | idasanutlin -0.017 | alisertib -0.252 | [2] -0.129 | gefitinib -0.032 | [3] 0.11 | lapatinib -0.301

DHX9 (UniProt Q08211)
inactive: [1] -0.015 | filanesib 0.309 | zotarolimus -0.06 | idasanutlin 0.156 | alisertib -0.106 | [2] 0.182 | gefitinib -0.063 | [3] -0.037 | lapatinib 0.061 | pictilisib -0.037

DNAH8 (UniProt Q96JB1)
inactive: [1] 0.029 | filanesib 0.015 | zotarolimus -0.073 | idasanutlin -0.016 | alisertib 0.078 | [2] 0.015 | gefitinib -0.052 | [3] 0.222 | lapatinib 0.031

DHX40 (UniProt Q8IX18)
inactive: [1] -0.025 | filanesib 0.022 | zotarolimus 0.008 | idasanutlin 0.025 | alisertib -0.146 | [2] -0.019 | gefitinib 0.31 | [3] -0.037 | lapatinib 0.039 | pictilisib -0.014

DFFB (UniProt O76075)
inactive: [1] -0.016 | filanesib -0.141 | zotarolimus -0.093 | idasanutlin -0.03 | alisertib -0.004 | [2] 0.06 | gefitinib -0.054 | [3] 0.041 | lapatinib -0.015 | pictilisib -0.074

DECR1 (UniProt Q16698)
inactive: [1] 0.023 | filanesib -0.016 | zotarolimus 0.001 | idasanutlin -0.063 | alisertib 0.002 | [2] -0.049 | gefitinib -0.005 | [3] 0.004 | lapatinib 0.012 | pictilisib -0.06

Taken from the results shown (6 entries):
DENND4B (UniProt O75064)
inactive: [1] -0.117 | filanesib 0.113 | zotarolimus 0.064 | idasanutlin 0.037 | alisertib -0.043 | [2] 0.083 | gefitinib 0.064 | [3] 0.137 | lapatinib 0.147 | pictilisib 0.05

DGCR8 (UniProt Q8WYQ5)
inactive: [1] -0.009 | filanesib 0.345 | zotarolimus 0.11 | idasanutlin 0.313 | alisertib -0.114 | [2] -0.08 | gefitinib -0.04 | [3] -0.034 | lapatinib 0.227 | pictilisib -0.085

DHRS4 (UniProt Q9BTZ2)
inactive: [1] 0.113 | filanesib -0.103 | zotarolimus -0.014 | idasanutlin -0.008 | alisertib -0.045 | [2] -0.004 | gefitinib 0.045 | [3] 0.04 | lapatinib 0.015 | pictilisib -0.034

DHODH (UniProt Q02127)
inactive: [1] -0.008 | filanesib -0.014 | zotarolimus -0.031 | idasanutlin 0.007 | alisertib -0.024 | [2] 0.051 | gefitinib 0.011 | [3] 0.061 | lapatinib -0.065 | pictilisib -0.003

DGKE (UniProt P52429)
inactive: [1] -0.049 | filanesib -0.126 | zotarolimus 0.121 | idasanutlin -0.017 | alisertib -0.252 | [2] -0.129 | gefitinib -0.032 | [3] 0.11 | lapatinib -0.301

DHX9 (UniProt Q08211)
inactive: [1] -0.015 | filanesib 0.309 | zotarolimus -0.06 | idasanutlin 0.156 | alisertib -0.106 | [2] 0.182 | gefitinib -0.063 | [3] -0.037 | lapatinib 0.061 | pictilisib -0.037
